“And” between values parts separate entries of the source, which are not always exact repeats. Equal values may be shown once.
B1: DR3 (protein, UniProt Q93038 25-417, looked up)
Tumor necrosis factor …: QGGTRSPRCDCAGDFHKKIGLFCCRGCPAGHYLKAPCTEPCGNSTCLVCPQDTFLAWENHHNSECARCQACDEQASQVALENCSAVADTRCGCKPGWFVECQVSQCVSSSPFYCQPCLDCGALHRHTRLLCSRRDTDCGTCLPGFYEHGDGCVSCPTSTLGSCPERCAAVCGWRQMFWVQVLLAGLVVPLLLGATLTYTYRHCWPHKPLVTADEAGMEALTPPPATHLSPLDSAHTLLAPPDSSEKICTVQLVGNSWTPGYPETQEALCPQVTWSWDQLPSRALGPAAAPTLSPESPAGSPAMMLQPGPQLYDVMDAVPARRWKEFVRTLGLREAEIEAVEVEIGRFRDQQYEMLKRWRQQQPAGLGAVYAALERMGLDGCVEDLRSRLQRGP
B2: CD111 (protein, UniProt Q15223 31-517, looked up)
Nectin-1: QVVQVNDSMYGFIGTDVVLHCSFANPLPSVKITQVTWQKSTNGSKQNVAIYNPSMGVSVLAPYRERVEFLRPSFTDGTIRLSRLELEDEGVYICEFATFPTGNRESQLNLTVMAKPTNWIEGTQAVLRAKKGQDDKVLVATCTSANGKPPSVVSWETRLKGEAEYQEIRNPNGTVTVISRYRLVPSREAHQQSLACIVNYHMDRFKESLTLNVQYEPEVTIEGFDGNWYLQRMDVKLTCKADANPPATEYHWTTLNGSLPKGVEAQNRTLFFKGPINYSLAGTYICEATNPIGTRSGQVEVNITEFPYTPSPPEHGRRAGPVPTAIIGGVAGSILLVLIVVGGIVVALRRRRHTFKGDYSTKKHVYGNGYSKAGIPQHHPPMAQNLQYPDDSDDEKKAGPLGGSSYEEEEEEEEGGGGGERKVGGPHPKYDEDAKRPYFTVDEAEARQDGYGDRTLGYQYDPEQLDLAENMVSQNDGSFISKKEWYV
B3: CD90 (protein, UniProt P04216 20-130, looked up)
Thy-1 membrane glycoprotein: QKVTSLTACLVDQSLRLDCRHENTSSSPIQYEFSLTRETKKHVLFGTVGVPEHTYRSRTNFTSKYNMKVLYLSAFTSKDEGTYTCALHHSGHSPPISSQNVTVLRDKLVKC
B4: NKp80 (protein, UniProt Q9NZS2 1-231, looked up)
Killer cell lectin-like …: MQDEERYMTLNVQSKKRSSAQTSQLTFKDYSVTLHWYKILLGISGTVNGILTLTLISLILLVSQGVLLKCQKGSCSNATQYEDTGDLKVNNGTRRNISNKDLCASRSADQTVLCQSEWLKYQGKCYWFSNEMKSWSDSYVYCLERKSHLLIIHDQLEMAFIQKNLRQLNYVWIGLNFTSLKMTWTWVDGSPIDSKIFFIKGPAKENSCAAIKESKIFSETCSSVFKWICQY
B5: CD105 (Endoglin) (protein, UniProt P17813 26-658, looked up)
Endoglin: ETVHCDLQPVGPERGEVTYTTSQVSKGCVAQAPNAILEVHVLFLEFPTGPSQLELTLQASKQNGTWPREVLLVLSVNSSVFLHLQALGIPLHLAYNSSLVTFQEPPGVNTTELPSFPKTQILEWAAERGPITSAAELNDPQSILLRLGQAQGSLSFCMLEASQDMGRTLEWRPRTPALVRGCHLEGVAGHKEAHILRVLPGHSAGPRTVTVKVELSCAPGDLDAVLILQGPPYVSWLIDANHNMQIWTTGEYSFKIFPEKNIRGFKLPDTPQGLLGEARMLNASIVASFVELPLASIVSLHASSCGGRLQTSPAPIQTTPPKDTCSPELLMSLIQTKCADDAMTLVLKKELVAHLKCTITGLTFWDPSCEAEDRGDKFVLRSAYSSCGMQVSASMISNEAVVNILSSSSPQRKKVHCLNMDSLSFQLGLYLSPHFLQASNTIEPGQQSFVQVRVSPSVSEFLLQLDSCHLDLGPEGGTVELIQGRAAKGNCVSLLSPSPEGDPRFSFLLHFYTVPIPKTGTLSCTVALRPKTGSQDQEVHRTVFMRLNIISPDLSGCTSKGLVLPAVLGITFGAFLIGALLTAALWYIYSHTRSPSKREPVVAVAAPASSESSSTNHSIGSTQSTPCSTSSMA
B6: HVEM (protein, UniProt Q92956 39-283, looked up)
Tumor necrosis factor …: LPSCKEDEYPVGSECCPKCSPGYRVKEACGELTGTVCEPCPPGTYIAHLNGLSKCLQCQMCDPAMGLRASRNCSRTENAVCGCSPGHFCIVQDGDHCAACRAYATSSPGQRVQKGGTESQDTLCQNCPPGTFSPNGTLEECQHQTKCSWLVTKAGAGTSSSHWVWWFLSGSLVIVIVCSTVGLIICVKRRKPRGDVVKVIVSVQRKRQEAEGEATVIEALQAPPDVTTVAVEETIPSFTGRSPNH
B7: TM4SF20 (protein, UniProt Q53R12 1-229, looked up)
Transmembrane 4 L6 family …: MTCCEGWTSCNGFSLLVLLLLGVVLNAIPLIVSLVEEDQFSQNPISCFEWWFPGIIGAGLMAIPATTMSLTARKRACCNNRTGMFLSSLFSVITVIGALYCMLISIQALLKGPLMCNSPSNSNANCEFSLKNISDIHPESFNLQWFFNDSCAPPTGFNKPTSNDTMASGWRASSFHFDSEENKHRLIHFSVFLGLLLVGILEVLFGLSQIVIGFLGCLCGVSKRRSQIV
B8: CD357 (protein, UniProt Q9Y5U5 26-241, looked up)
Tumor necrosis factor …: QRPTGGPGCGPGRLLLGTGTDARCCRVHTTRCCRDYPGEECCSEWDCMCVQPEFHCGDPCCTTCRHHPCPPGQGVQSQGKFSFGFQCIDCASGTFSGGHEGHCKPWTDCTQFGFLTVFPGNKTHNAVCVPGSPPAEPLGWLTVVLLAVAACVLLLTSAQLGLHIWQLRSQCMWPRETQLLLEVPPSTEDARSCQFPEEERGERSAEEKGRLGDLWV
B9: CD9 (protein, UniProt P21926 2-228, looked up)
CD9 antigen: PVKGGTKCIKYLLFGFNFIFWLAGIAVLAIGLWLRFDSQTKSIFEQETNNNNSSFYTGVYILIGAGALMMLVGFLGCCGAVQESQCMLGLFFGFLLVIFAIEIAAAIWGYSHKDEVIKEVQEFYKDTYNKLKTKDEPQRETLKAIHYALNCCGLAGGVEQFISDICPKKDVLETFTVKSCPDAIKEVFDNKFHIIGAVGIGIAVVMIFGMIFSMILCCAIRRNREMV
B10: CD96 (protein, UniProt P40200 22-585, looked up)
T-cell surface protein tactile: VWEKTVNTEENVYATLGSDVNLTCQTQTVGFFVQMQWSKVTNKIDLIAVYHPQYGFYCAYGRPCESLVTFTETPENGSKWTLHLRNMSCSVSGRYECMLVLYPEGIQTKIYNLLIQTHVTADEWNSNHTIEIEINQTLEIPCFQNSSSKISSEFTYAWSVENSSTDSWVLLSKGIKEDNGTQETLISQNHLISNSTLLKDRVKLGTDYRLHLSPVQIFDDGRKFSCHIRVGPNKILRSSTTVKVFAKPEIPVIVENNSTDVLVERRFTCLLKNVFPKANITWFIDGSFLHDEKEGIYITNEERKGKDGFLELKSVLTRVHSNKPAQSDNLTIWCMALSPVPGNKVWNISSEKITFLLGSEISSTDPPLSVTESTLDTQPSPASSVSPARYPATSSVTLVDVSALRPNTTPQPSNSSMTTRGFNYPWTSSGTDTKKSVSRIPSETYSSSPSGAGSTLHDNVFTSTARAFSEVPTTANGSTKTNHVHITGIVVNKPKDGMSWPVIVAALLFCCMILFGLGVRKWCQYQKEIMERPPPFKPPPPPIKYTCIQEPNESDLPYHEMETL
B11: MERTK (protein, UniProt Q12866 21-999, looked up)
Tyrosine-protein kinase Mer: AITEAREEAKPYPLFPGPFPGSLQTDHTPLLSLPHASGYQPALMFSPTQPGRPHTGNVAIPQVTSVESKPLPPLAFKHTVGHIILSEHKGVKFNCSISVPNIYQDTTISWWKDGKELLGAHHAITQFYPDDEVTAIIASFSITSVQRSDNGSYICKMKINNEEIVSDPIYIEVQGLPHFTKQPESMNVTRNTAFNLTCQAVGPPEPVNIFWVQNSSRVNEQPEKSPSVLTVPGLTEMAVFSCEAHNDKGLTVSKGVQINIKAIPSPPTEVSIRNSTAHSILISWVPGFDGYSPFRNCSIQVKEADPLSNGSVMIFNTSALPHLYQIKQLQALANYSIGVSCMNEIGWSAVSPWILASTTEGAPSVAPLNVTVFLNESSDNVDIRWMKPPTKQQDGELVGYRISHVWQSAGISKELLEEVGQNGSRARISVQVHNATCTVRIAAVTRGGVGPFSDPVKIFIPAHGWVDYAPSSTPAPGNADPVLIIFGCFCGFILIGLILYISLAIRKRVQETKFGNAFTEEDSELVVNYIAKKSFCRRAIELTLHSLGVSEELQNKLEDVVIDRNLLILGKILGEGEFGSVMEGNLKQEDGTSLKVAVKTMKLDNSSQREIEEFLSEAACMKDFSHPNVIRLLGVCIEMSSQGIPKPMVILPFMKYGDLHTYLLYSRLETGPKHIPLQTLLKFMVDIALGMEYLSNRNFLHRDLAARNCMLRDDMTVCVADFGLSKKIYSGDYYRQGRIAKMPVKWIAIESLADRVYTSKSDVWAFGVTMWEIATRGMTPYPGVQNHEMYDYLLHGHRLKQPEDCLDELYEIMYSCWRTDPLDRPTFSVLRLQLEKLLESLPDVRNQADVIYVNTQLLESSEGLAQGSTLAPLDLNIDPDSIIASCTPRAAISVVTAEVHDSKPHEGRYILNGGSEEWEDLTSAPSAAVTAEKNSVLPGERLVRNGVSWSHSSMLPLGSSLPDELLFADDSSEGSEVLM
B12: Tim-4 (protein, UniProt Q96H15 25-378, looked up)
T-cell immunoglobulin and …: ETVVTEVLGHRVTLPCLYSSWSHNSNSMCWGKDQCPYSGCKEALIRTDGMRVTSRKSAKYRLQGTIPRGDVSLTILNPSESDSGVYCCRIEVPGWFNDVKINVRLNLQRASTTTHRTATTTTRRTTTTSPTTTRQMTTTPAALPTTVVTTPDLTTGTPLQMTTIAVFTTANTCLSLTPSTLPEEATGLLTPEPSKEGPILTAESETVLPSDSWSSVESTSADTVLLTSKESKVWDLPSTSHVSMWKTSDSVSSPQPGASDTAVPEQNKTTKTGQMDGIPMSMKNEMPISQLLMIIAPSLGFVLFALFVAFLLRGKLMETYCSQKHTRLDYIGDSKNVLNDVQHGREDEDGLFTL
B13: TLT-2 (protein, UniProt Q5T2D2 19-321, looked up)
Trem-like transcript 2 protein: GPSADSVYTKVRLLEGETLSVQCSYKGYKNRVEGKVWCKIRKKKCEPGFARVWVKGPRYLLQDDAQAKVVNITMVALKLQDSGRYWCMRNTSGILYPLMGFQLDVSPAPQTERNIPFTHLDNILKSGTVTTGQAPTSGPDAPFTTGVMVFTPGLITLPRLLASTRPASKTGYSFTATSTTSQGPRRTMGSQTVTASPSNARDSSAGPESISTKSGDLSTRSPTTGLCLTSRSLLNRLPSMPSIRHQDVYSTVLGVVLTLLVLMLIMVYGFWKKRHMASYSMCSDPSTRDPPGRPEPYVEVYLI

Assays:
Experiment in all cases: High-throughput cell-surface marker screening (LEGENDScreen), %PE+
Assay type in all cases: cell-based, human
Details in all cases: percentage of cells bound to the PE-conjugated antibody (LEGENDScreen)
D3.5 SOX17-GFP+ PGCs = tested on: D3.5 SOX17-GFP+ PGCs
[1] = tested on: undifferentiated hPSC (D0)
D3.5 SOX17-GFP- non-PGCs = tested on: D3.5 SOX17-GFP- non-PGCs

Row | Molecule | % PE+ in PGCs (D3.5 SOX17-GFP+ PGCs) | % PE+ in H1 UD [1] | % PE+ in non-PGCs (D3.5 SOX17-GFP- non-PGCs)
1 | B1 | 0% | 0.2% | 0%
2 | B2 | 0.64% | 99.7% | 0.5127%
3 | B3 | 0% | 99.9% | 0.0001317%
4 | B4 | 0% | 0.23% | 0.0001214%
5 | B5 | 0.09244% | 77% | 0.2105%
6 | B6 | 0% | 0.34% | 0.001214%
7 | B7 | 0% | 0.12% | 0%
8 | B8 | 0% and 0.002531% | 0.69% and 0.68% | 4.767E-05% and 0%
9 | B9 | 0% | 99.7% | 0.0001621%
10 | B10 | 0% | 0.69% | 0.0002532%
11 | B11 | 0.7119% | 99.8% | 0.504%
12 | B12 | 0% | 0.37% | 4.261E-05%
13 | B13 | 0% | 0.22% | 7.886E-05%

— patent publication US20230242871A1, “GENERATION OF PRIMORDIAL GERM CELLS AND METHODS OF USING THE SAME” (The Board of Trustees of the Leland Stanfor Junior …, priority 2020, published 2023)
